These are yes or no findings as the source states them, for the method shown. Binding seen in cells or lysates may run through a third protein. Some results given as binding are weak or reduced against the parent protein; the word gives no strength.
Assays:
[1] = target: Epidermal growth factor receptor (EGFR), human (human (endogenous in HT-29)) (UniProt P00533); test: co-IP; HT-29 cell lysates, cells treated with DMSO, PF-562271 (5 µM) or erlotinib (10 µM) for 1 hr; same immunoprecipitation protocol as for tissue lysates (anti-EGFR agarose); anti-HA or anti-Flag beads as controls; immunoblotting
[2] = target: Epidermal growth factor receptor (Egfr), mouse (mouse (endogenous in cecal mucosa)) (UniProt Q01279); test: co-IP; cecal mucosa lysates of 6-week-old mice (vehicle-treated B and BC, erlotinib-treated BC; KC and BC), pre-cleared with Protein G-sepharose, incubated with anti-EGFR antibody conjugated to agarose at 4 °C for 4 hr; washed with 20 mM Tris-HCl pH 7.5, 150 mM NaCl, 1 mM EDTA, 1% NP40, 10% …; immunoblotting

Chains of the proteins cited; added tags and fusions are not shown.
UniProt Q05397: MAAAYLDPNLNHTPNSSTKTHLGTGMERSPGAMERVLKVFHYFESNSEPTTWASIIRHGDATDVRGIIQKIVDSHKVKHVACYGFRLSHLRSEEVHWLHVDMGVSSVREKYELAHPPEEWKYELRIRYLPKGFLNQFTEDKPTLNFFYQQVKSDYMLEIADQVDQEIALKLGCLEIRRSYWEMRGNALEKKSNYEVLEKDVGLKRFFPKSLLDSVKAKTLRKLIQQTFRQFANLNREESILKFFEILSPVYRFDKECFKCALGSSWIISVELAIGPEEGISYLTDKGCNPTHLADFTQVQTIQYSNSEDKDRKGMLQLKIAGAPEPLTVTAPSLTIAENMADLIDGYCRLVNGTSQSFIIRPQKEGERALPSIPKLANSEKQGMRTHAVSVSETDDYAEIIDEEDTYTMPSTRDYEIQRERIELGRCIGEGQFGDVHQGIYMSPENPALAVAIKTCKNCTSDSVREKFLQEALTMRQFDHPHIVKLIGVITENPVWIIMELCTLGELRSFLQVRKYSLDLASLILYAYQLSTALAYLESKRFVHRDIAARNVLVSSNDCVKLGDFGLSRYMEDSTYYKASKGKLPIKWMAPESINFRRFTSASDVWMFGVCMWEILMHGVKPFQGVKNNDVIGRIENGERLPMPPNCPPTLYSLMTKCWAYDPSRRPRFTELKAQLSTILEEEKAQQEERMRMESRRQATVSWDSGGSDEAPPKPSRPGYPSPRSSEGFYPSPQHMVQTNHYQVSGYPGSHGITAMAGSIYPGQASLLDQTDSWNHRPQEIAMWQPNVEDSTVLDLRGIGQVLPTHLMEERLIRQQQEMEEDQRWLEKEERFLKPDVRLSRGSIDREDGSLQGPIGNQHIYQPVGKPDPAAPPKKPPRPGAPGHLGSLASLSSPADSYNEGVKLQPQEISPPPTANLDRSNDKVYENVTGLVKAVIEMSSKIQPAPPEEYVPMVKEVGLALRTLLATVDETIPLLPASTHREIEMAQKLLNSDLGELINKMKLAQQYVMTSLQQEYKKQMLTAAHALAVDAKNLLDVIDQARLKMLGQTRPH
UniProt P34152: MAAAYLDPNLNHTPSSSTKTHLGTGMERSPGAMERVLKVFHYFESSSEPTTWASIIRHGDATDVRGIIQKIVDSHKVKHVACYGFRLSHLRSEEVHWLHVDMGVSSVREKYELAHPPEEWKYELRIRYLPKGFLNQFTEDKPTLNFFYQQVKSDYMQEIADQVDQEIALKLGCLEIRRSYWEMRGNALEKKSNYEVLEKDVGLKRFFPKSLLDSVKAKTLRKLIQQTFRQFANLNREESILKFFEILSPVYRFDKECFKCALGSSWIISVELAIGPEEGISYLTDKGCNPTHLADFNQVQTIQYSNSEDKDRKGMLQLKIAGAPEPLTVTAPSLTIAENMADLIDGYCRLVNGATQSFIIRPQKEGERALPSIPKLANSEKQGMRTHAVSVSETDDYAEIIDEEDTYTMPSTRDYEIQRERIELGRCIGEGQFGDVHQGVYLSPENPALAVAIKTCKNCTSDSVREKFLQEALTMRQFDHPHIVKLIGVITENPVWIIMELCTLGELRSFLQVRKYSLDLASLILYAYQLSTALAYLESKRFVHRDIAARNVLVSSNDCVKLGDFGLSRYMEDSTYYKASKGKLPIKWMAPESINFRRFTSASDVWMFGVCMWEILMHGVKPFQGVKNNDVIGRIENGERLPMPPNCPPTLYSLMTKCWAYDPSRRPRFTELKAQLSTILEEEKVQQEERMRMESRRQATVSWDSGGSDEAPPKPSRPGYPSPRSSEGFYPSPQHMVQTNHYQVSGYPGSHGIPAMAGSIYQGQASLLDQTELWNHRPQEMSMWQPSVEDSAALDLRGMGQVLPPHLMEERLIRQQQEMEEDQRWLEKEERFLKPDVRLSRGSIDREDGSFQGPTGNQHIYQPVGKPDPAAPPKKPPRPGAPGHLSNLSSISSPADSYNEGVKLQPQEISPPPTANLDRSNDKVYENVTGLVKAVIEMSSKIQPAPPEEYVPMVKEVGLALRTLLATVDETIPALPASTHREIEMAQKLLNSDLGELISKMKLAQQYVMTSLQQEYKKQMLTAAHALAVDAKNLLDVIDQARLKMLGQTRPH

## Focal adhesion kinase (FAK), human (from UniProt Q05397 1-1052)
[1]
  binding: binds

## Focal adhesion kinase (Fak), mouse (from UniProt P34152 1-1052)
[2]
  binding: binds

Reference: publication PMC11208045
